The data set can be described thus: general procedure: Fmoc solid-phase peptide synthesis; HMP resin; HOBT. Conditions: whole synthesis, scale 0.25 mmol.

Plain letter strings leave the end groups untold.

For KKKKKKKKKKTKS, the isolated yield result was “approximately 30.5%”.

The values are drawn from patent US7094407B2 (LG Household & Health Care Ltd., priority 2002, dated 2006).
